Data taken from PMC9295959.
Construct, isoform or probe ends are uncertain for at least one entry. Results from cells or extracts need not show a direct contact.

Amino acid sequences for entries named in this document (tags omitted).
UniProt A0A8G0KLC2, entry or part of it: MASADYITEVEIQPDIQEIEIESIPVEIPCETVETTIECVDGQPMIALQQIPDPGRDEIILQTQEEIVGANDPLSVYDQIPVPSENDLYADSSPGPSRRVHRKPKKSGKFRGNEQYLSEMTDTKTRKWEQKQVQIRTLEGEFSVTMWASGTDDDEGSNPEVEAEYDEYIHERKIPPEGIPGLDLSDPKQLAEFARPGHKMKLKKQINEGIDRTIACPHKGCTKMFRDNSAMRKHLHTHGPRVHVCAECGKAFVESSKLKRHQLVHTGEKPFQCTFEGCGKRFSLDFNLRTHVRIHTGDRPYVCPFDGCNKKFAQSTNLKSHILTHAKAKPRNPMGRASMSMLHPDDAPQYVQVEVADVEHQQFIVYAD

Target: YY1-His (Laodelphax striatellus (small brown planthopper)) (UniProt A0A8G0KLC2)
Experiment: EMSA
Conditions: 50x unlabeled probe or anti-YY1 antibody reduced the shift; EMSA: 1 nM biotin probe, nuclear extract, 20 uL with 2.5% glycerol, 5 mM MgCl2, 50 ng/uL poly(dI/dC), 0.05% NP-40; 4.5% native PAGE; protein in a lysate after overexpression; residues 1-368; protein details: His; label: biotin

Sequence | binding result
GTACGTTCACCGTCACAGCCACTCAAAGAA (double strand) [TFBS1 probe] | binds
TGAAGTGGAAGATGGAATTAGGTTTG (double strand) [TFBS2 probe] | binds
